Reference: US20200040069A1
No constants are given. Whether binding was seen depends on the method and setting. A result given as binding can be weak or reduced; the word gives no strength.

Assays:
[1] = target: human recombinant pro-EMAP II (human); test: Western blot of recombinant pro-EMAP II with M7/1
[2] = target: mature-EMAP II protein (Mus musculus (Mouse)); test: ELISA of hybridoma supernatants
[3] = target: human recombinant pro-EMAP II (human); test: protection from tryptic digestion by immobilized antibody

Measured: binding

B1: rat antibody hybridoma clone M7/1 (EMAP II neutralizing M7/1 antibody) (antibody, V domains shown)
VH: AVHLVESGGGFVQPTESLKISCAASGFTFSDAAMYWVRQAPGKGLEWVARIRTKPNNYATYYADSVKGRFTISRDDSKSMVYLQMDNLKTEDTAMYYCTSWSYDFDYWGQGVMVTVSS
VL: DIVMTQGALPNPVPSGESASITCQSSKSLLHSSGKTYLNWYLQRPGQSPHLLIYWMSTRASGVSDRLSGSGSGTDFTLKISSVEAEDVGVYYCQQFLEYPLTFGSGTKLEIK
binds: all assays above
